Patent US20220331342A1, “TREATMENT OF TRAUMATIC ENCEPHALOPATHY BY FIBROBLASTS AND THERAPEUTIC ADJUVANTS” (FIGENE, LLC, priority 2019, published 2022)
Like-named read-outs stand apart in the source and are kept apart here. For at least one compound, name, drawing or mass did not settle the structure.

What was measured:
[1] = system: hippocampal neurons (CA1 pyramidal neurons); conditions: cited from earlier work; for survival of CA1 pyramidal neurons: untreated 10.5%
[2] = system: T regulatory cell numbers; assay: T regulatory cell numbers in animals after administration; type: in vivo; conditions: healthy animals and animals suffering from neurological issues such as chronic traumatic encephalopathy
[3] = system: mixed spinal cord (SC) cultures; conditions: cited from earlier work
[4] = system: pure microglia cultures; conditions: cited from earlier work

Row | Structure (SMILES) | survival of CA1 pyramidal neurons ([1]; global ischemia in gerbils, treatment started 30 min after ischemia) [%] | survival of CA1 pyramidal neurons ([1]; global ischemia in gerbils, treatment started 12 h before ischemia) [%] | T regulatory cell numbers [2] | induction of glial acidic fibrillary protein, a marker of astrogliosis ([1]; global ischemia in gerbils) | ischemia-induced activation of microglia and appearance of NADPH-diaphorase reactive cells ([1]; global ischemia in gerbils) | attenuation of expression of inducible nitric oxide synthase mRNA ([1]; minocycline-treated animals, after ischemia) [%] | reduction in mRNA induction of interleukin-1beta-converting enzyme ([1]; treatment for 4 days, after ischemia) [%] | p38 MAPK activation ([3]; SC cultures, excitotoxins) | excitotoxin-induced microglial proliferation and increased release of nitric oxide (NO) metabolites and IL-1beta ([3]; mixed SC cultures) | glutamate- and kainate-induced activation of p38 MAPK, exclusively activated in microglia ([4]; primary neurons and purified microglial cultures) | excitotoxin-induced microglial proliferation and release of NO metabolites and IL-1beta ([4]; pure microglia cultures) | glutamate-induced transient activation of p38 MAPK ([4]; pure microglia cultures)
1 | C[C@H]1c2cccc(O)c2C(=O)C2=C(O)[C@]3(O)C(=O)C(C(N)=O)=C(O)[C@@H](N(C)C)[C@@H]3[C@@H](O)[C@@H]21 [doxycycline] | 47 | 57 | – | – | – | – | – | – | – | – | – | –
2 | CN(C)c1ccc(O)c2c1C[C@H]1C[C@H]3[C@H](N(C)C)C(O)=C(C(N)=O)C(=O)[C@@]3(O)C(O)=C1C2=O [Minocycline, minocycline] | – | – | ability to modulate T regulatory cell numbers | did not affect | prevented completely | 30 | 70 | inhibited | prevented | inhibits | inhibited | inhibited
